# Data reported in PubChem BioAssay (NCATS).
# By UniProt entry, the sequences of proteins in these tests, tags left out. Where a name states a change or a piece, a line headed by the entry shows the natural chain unless it says otherwise.
# UniProt A8B2U2: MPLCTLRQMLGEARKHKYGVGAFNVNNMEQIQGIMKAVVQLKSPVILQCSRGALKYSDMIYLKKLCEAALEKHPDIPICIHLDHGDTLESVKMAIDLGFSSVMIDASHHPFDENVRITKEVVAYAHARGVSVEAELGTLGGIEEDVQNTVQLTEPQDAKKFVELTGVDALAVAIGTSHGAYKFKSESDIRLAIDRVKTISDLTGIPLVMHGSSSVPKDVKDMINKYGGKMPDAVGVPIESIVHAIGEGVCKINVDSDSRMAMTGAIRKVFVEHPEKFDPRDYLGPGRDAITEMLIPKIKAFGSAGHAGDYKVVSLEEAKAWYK
# UniProt P00883: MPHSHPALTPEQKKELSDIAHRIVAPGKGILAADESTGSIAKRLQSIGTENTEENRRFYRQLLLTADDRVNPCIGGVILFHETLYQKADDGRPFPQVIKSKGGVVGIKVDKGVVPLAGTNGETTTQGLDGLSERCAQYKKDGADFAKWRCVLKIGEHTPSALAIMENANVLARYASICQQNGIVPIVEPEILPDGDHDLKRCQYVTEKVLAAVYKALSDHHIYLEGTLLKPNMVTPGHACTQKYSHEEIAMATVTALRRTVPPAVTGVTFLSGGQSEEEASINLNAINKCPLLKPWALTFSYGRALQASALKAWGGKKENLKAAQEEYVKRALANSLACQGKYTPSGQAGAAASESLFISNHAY
# Inconclusive means that the source gave no clear call. Such entries were picked first, then a sample of the others. Potencies of inconclusive entries are doubtful fits and often do not repeat. The source made the active and inactive calls. The call rests on the fitted dose curve; in most records, active means well fitted curve in the direction sought with a large enough effect; inconclusive means small, poorly fitted or top-dose-only effect, or another doubt; inactive means no such curve, though single readings can be large; an effect the other way counts as inactive or inconclusive.
# Legend:
# [1] = qHTS Assay for Inhibitors of Fructose-1,6-bisphosphate Aldolase from Giardia Lamblia: Giardia lamblia growth inhibition (AID 2785); details: Giardia lamblia trophozoite growth inhibition; activity change, negative = inhibition: at 57.5 µM (top of the series); further: nearly all actives have a fitted effect of over 70% in size; further: potency means the concentration at half of the fitted maximal effect
# How it was run: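 G. lamblia WB trophozoites (100 cells/well) in modified TYI-S-33 medium, pH 7.0, were exposed to pin-transferred compounds or DMSO for 48 h at 37C in sealed bags. Viability was read as ATPlite luminescence after 20 min at room temperature.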
# [2] = qHTS Assay for Inhibitors of Fructose-1,6-bisphosphate Aldolase from Giardia Lamblia: Mammalian cellular toxicity (AID 2786);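 further: compound exposure lasted 48 h before reading; nearly all actives have a fitted effect of over 60% in size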; further: potency means the concentration at half of the fitted maximal effect
# How it was run: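 Chinese hamster ovary cells (250/well, DMEM with 10% FBS and penicillin/streptomycin) were exposed to compounds for 48 h at 37 °C, 5% CO2. Viability was taken as cellular ATP content, read with ATPlite reagent after 20 min.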
# [3] = target: Fructose-bisphosphate aldolase (Giardia intestinalis (strain ATCC 50803 / WB clone C6)) (UniProt A8B2U2); assay: qHTS Assay for Inhibitors of Fructose-1,6-bisphosphate Aldolase from Giardia Lamblia: Primary screen confirmation (AID 2787);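 on activity change, negative = inhibition: aldolase product measured through coupled diaphorase step turning resazurin into fluorescent resorufin; nearly all actives have a fitted effect of over 45% in size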
# How it was run: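 FBPA (40 nM in enzyme reagent, with 30 uM ZnCl2) was preincubated 10 min at RT with compound up to 57.5 uM final. Substrate plus coupled detection system was then added, and fluorescence (525/598 nm) was read after 20 min at RT.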
# [4] = target: Fructose-bisphosphate aldolase A (Oryctolagus cuniculus) (UniProt P00883); assay: qHTS Assay for Inhibitors of Fructose-1,6-bisphosphate Aldolase from Giardia Lamblia: Rabbit FBPA Selectivity (AID 2794)
# How it was run: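 Rabbit FBPA, coupled to a resorufin-type fluorescent read (525/598 nm), tests whether primary hits hit Class I aldolase. Compound (up to 57.5 uM final) sits 10 min at RT with coupling enzyme before substrate/detection mix; read after 20 min RT.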
# [5] = qHTS Assay for Inhibitors of Fructose-1,6-bisphosphate Aldolase from Giardia Lamblia: Coupling assay counterscreen confirmation (AID 2795); on activity change, negative = inhibition: nearly all actives have a fitted effect of over 55% in size
# How it was run: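 Compounds at up to 57.5 uM final tested against the coupling enzymes and resorufin-type fluorescent detection only, aldolase omitted. Ex 525 nm/em 598 nm read after 10 min enzyme-compound and 20 min substrate incubations, room temperature.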
# On the % scale 0 is the no-effect control and ±100 the full control effect.
compound,measurement,setting,value
Cc1cccc(C(=O)Nc2nnc(-c3cccnc3)o2)c1,Potency,[1],"inconclusive: 15.8 µM [inhibitor, single point]"
same,Potency,[2],"inconclusive: 501 µM [inhibitor, partial curve]"
COc1ccccc1OCc1nn[nH]n1,Potency,[1],"inconclusive: 25.1 µM [inhibitor, single point]"
same,Potency,[2],inactive
Cc1ccc(C(=O)NNC(=S)NC(=O)c2ccc(Cl)cc2Cl)cc1,Potency,[1],inactive
same,Potency,[2],"inconclusive: 79.4 µM [inhibitor, single point]"
COc1ccc(OC)c(C2CC(=O)N3CN(c4ccccc4)CSC3=C2C#N)c1 (stereo not given),Potency,[1],"inconclusive: 7.08 µM [inhibitor, single point]"
CCOC(=O)N1CCN(CC(=O)Nc2nnc(C(F)(F)F)s2)CC1,Potency,[1],"inconclusive: 50.1 µM [inhibitor, partial curve]"
O=C(Nc1ncn[nH]1)c1ccccc1O,"activity change, negative = inhibition",[1],inconclusive: 72.4% [activator]
same,Potency,[2],inactive
O=C(NNC(=O)c1ccccn1)c1cccc([N+](=O)[O-])c1,Potency,[1],"inconclusive: 15.8 µM [inhibitor, single point]"
same,Potency,[2],"inconclusive: 79.4 µM [inhibitor, single point]"
Cc1cc(=O)[nH]c(SCC(=O)c2ccc(O)c(O)c2)n1,Potency,[1],"inconclusive: 44.7 µM [inhibitor, single point]"
same,Potency,[3],"inconclusive: 3.16 µM [inhibitor, partial curve]"
Cc1ccc(C(=O)Nc2nc(-c3ccccn3)cs2)o1,Potency,[1],"inconclusive: 35.5 µM [inhibitor, single point]"
same,Potency,[2],"inconclusive: 79.4 µM [inhibitor, single point]"
same,Potency,[3],inactive
COc1cc(OC)c(NC2=CC(=O)C(=O)c3ccccc32)cc1Cl,Potency,[1],active: 22.5 µM
same,Potency,[2],active: 20.6 µM
same,Potency,[4],active: 13 µM
N#Cc1ccsc1NC(=O)c1ccccn1,Potency,[1],active: 10 µM
same,Potency,[3],inactive
O=C(NC(=S)N1CCN(C/C=C/c2ccccc2)CC1)c1cccnc1,Potency,[1],inactive
same,Potency,[3],inactive
Cc1ccc(/C=C2\SC(=S)N(CC3CCCO3)C2=O)o1 (stereo not given),Potency,[1],inactive
same,Potency,[3],inactive
COC(=O)C1=C(O)/C(=C\c2cc(C)n(-c3ccc(F)cc3)c2C)N=C1C,"activity change, negative = inhibition",[1],inactive: 14.5% [at 10.4 µM]
same,Potency,[2],inactive
same,Potency,[5],inactive
Cc1ccnc2nc(C(=O)Nc3nc(-c4ccccn4)cs3)nn12,Potency,[1],"inconclusive: 31.6 µM [inhibitor, single point]"
same,Potency,[2],inactive
same,Potency,[5],inactive
CN(C)S(=O)(=O)c1cccc(-n2sc3ccccc3c2=O)c1,Potency,[1],"inconclusive: 25.1 µM [inhibitor, single point]"
same,Potency,[2],"inconclusive: 25.1 µM [inhibitor, single point]"
same,Potency,[4],active: 22.4 µM
COCCn1c(C)c(C)c2c(NCCc3ccccc3)ncnc21,Potency,[1],inactive
same,Potency,[2],"inconclusive: 100 µM [inhibitor, single point]"
same,Potency,[4],inactive
O=C(Oc1c(CN2CCOCC2)cc(Cl)c2cccnc12)c1ccccc1F,Potency,[1],active: 7.94 µM
same,Potency,[2],active: 7.94 µM
same,Potency,[3],"inconclusive: 8.91 µM [inhibitor, partial curve]"
same,Potency,[4],"inconclusive: 126 µM [inhibitor, partial curve]"
CC(C)(C)c1ccc(C(=O)Nc2cccc3c(=O)[nH][nH]c(=O)c23)cc1,Potency,[1],"inconclusive: 15.8 µM [inhibitor, partial curve]"
same,Potency,[2],"inconclusive: 39.8 µM [inhibitor, partial curve]"
O=C(Nc1nc(-c2ccccn2)cs1)c1ccccc1-n1cnnn1,Potency,[1],active: 20 µM
same,Potency,[2],"inconclusive: 39.8 µM [inhibitor, partial curve]"
same,Potency,[5],"inconclusive: 79.4 µM [inhibitor, single point]"
Cc1ccccc1NNC(=O)C(=O)NNc1ccccc1C,Potency,[1],"inconclusive: 112 µM [inhibitor, partial curve, poor fit]"
same,Potency,[2],inactive
same,Potency,[5],inactive
CC1(C)Cc2sc3c(=O)[nH]c(=S)[nH]c3c2CO1,Potency,[1],inactive
same,Potency,[2],inactive
CCN1CCN(CC(=O)Nc2ccc(OC(F)(F)F)cc2)CC1,Potency,[1],inactive
same,Potency,[2],inactive
same,Potency,[5],inactive

# Two records picked at random from those above, as already listed:
compound,measurement,setting,value
COc1ccc(OC)c(C2CC(=O)N3CN(c4ccccc4)CSC3=C2C#N)c1 (stereo not given),Potency,[1],"inconclusive: 7.08 µM [inhibitor, single point]"
O=C(Nc1nc(-c2ccccn2)cs1)c1ccccc1-n1cnnn1,Potency,[2],"inconclusive: 39.8 µM [inhibitor, partial curve]"
